In assay [1] the target is human CD3 epsilon subunit (CD3e), as cell surface CD3 on Jurkat cells and on naive human T cells (human) (UniProt P07766). The assay is described as follows: flow cytometry (FACS) on Jurkat cells expressing CD3, MFI (PE) against antibody concentration in nM. (Flow cytometry measures light scatter and fluorescence of single cells or particles in a stream.)
Assay [2] concerns the target T1, CD3ed (CD3 epsilon/delta fusion protein) (human).
T1 construct: Expressed in HEK293 and purified on His60 resin and by SEC; also called soluble human CD3ed antigen; hCD3ed
T1 chain: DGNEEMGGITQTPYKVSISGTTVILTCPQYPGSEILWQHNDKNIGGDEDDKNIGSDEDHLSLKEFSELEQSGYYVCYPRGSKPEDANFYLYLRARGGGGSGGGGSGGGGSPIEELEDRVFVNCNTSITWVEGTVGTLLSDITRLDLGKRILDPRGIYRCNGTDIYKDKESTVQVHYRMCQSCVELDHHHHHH
The experiment in a line: SPR (Biacore), antibody captured on anti-human Fc, soluble CD3 antigen at 0-100 nM. Background: Surface plasmon resonance follows binding to a sensor surface in real time, without labels.

The target in assay [3] is human CD3 epsilon subunit (CD3e), as cell surface CD3 on Jurkat cells and on naive human T cells (human) (UniProt P07766). The experiment in a line: competition FACS on Jurkat cells.
Assay [4] shares this target. The experiment in a line: FACS on Jurkat cells, compared to 2B5v6.
Assay [5] shares this target. The experiment in a line: FACS on Jurkat cells expressing CD3.
Assay [6] has the same target. The experiment in a line: FACS on Jurkat cells expressing CD3, compared to parental 2B5v6.

Numbering of substitutions follows the chain as printed. No constants are given. Whether binding was seen depends on the method and setting. Some entries that bind do so weakly or less than the wild type.

B1: 2B5-0006 (2B5v6) (antibody, V domains shown)
VH: EVQLVESGGGLVQPGGSLRLSCAASGFTFSDYYMTWVRQAPGKGLEWVAFIRNQARGYTSDHNPSVKGRFTISRDNAKNSLYLQMNSLRAEDTAVYYCARDRPSYYVLDYWGQGTTVTVSS
VL: DIQMTQSPSSLSASVGDRVTITCTSSQSLFNVRSQKNYLAWYQQKPGKAPKLLIYWASTRESGVPSRFSGSGSGTDFTLTISSLQPEDFATYYCKQSYDLFTFGGGTKVEIK
notes: also called h2B5v6; parental 2B5v6
With B1, the binding entry in assay [1] was “binds”.

B2: 2B5-0001 (2B5 antibody), h2B4 1.0/1.0T (antibody, V domains shown)
VH: B1 VH with Q54R
VL: B1 VL with Q35R
As for B2, the binding entry in assay [2] and in assay [3] was “binds” in each case.

B3: 2B5v6-0623 (antibody, V domains shown)
VH: B1 VH with N63Q
VL: B1 VL with S26D, Q35G, T59D
B3: the binding entry in assay [4], in assay [5] and in assay [1] was “binds” each time.

B4: 2B5v6-0598 (antibody, V domains shown)
VH: B1 VH with A55D, N63Q
VL: B1 VL with S26D, Q35G, T59D
As for B4, the binding entry in assay [4], in assay [5] and in assay [1] was “binds” each time.

B5: 2B5v6-0522 (antibody, V domains shown)
VH: B1 VH with N63Q
VL: B1 VL with T59D
notes: Tested as a monovalent IgG; also called 2B5-0522
As to B5, the binding entry in assay [6] is “binds”.

B6: 2B5v6-0517 (antibody, V domains shown)
VH: B1 VH with N63Q
VL: B1 VL with Q35G
notes: Tested as a monovalent IgG; also called 2B5-0517
Consider B6, for which the binding entry in assay [6] is reported as “binds”.

B7: 2B5v6-0538 (antibody, V domains shown)
VH: B1 VH
VL: B1 VL with T59D
notes: Tested as a monovalent IgG; also called 2B5-0538
Take B7: the binding result in assay [6] was “binds”.

B8: 2B5v6-0533 (antibody, V domains shown)
VH: B1 VH
VL: B1 VL with Q35G
notes: Tested as a monovalent IgG; also called 2B5-0533
On to B8, for which the binding result in assay [6] was “binds”.

The values are drawn from patent publication US20190382486A1 (Pfizer, published 2019).
